Assay results published in paper doi:10.1101/2024.08.19.608612.
Results are given in words; binding and its absence hold for the method and conditions named. Binding seen in cells or lysates may run through a third protein. A yes stands for co-enrichment or nearness to the bait. Other partners may have been found. For some assays here: Sequences can lack the tags named with a protein.

The chains behind the UniProt entries cited, without tags or fusion partners.
UniProt Q9HC16: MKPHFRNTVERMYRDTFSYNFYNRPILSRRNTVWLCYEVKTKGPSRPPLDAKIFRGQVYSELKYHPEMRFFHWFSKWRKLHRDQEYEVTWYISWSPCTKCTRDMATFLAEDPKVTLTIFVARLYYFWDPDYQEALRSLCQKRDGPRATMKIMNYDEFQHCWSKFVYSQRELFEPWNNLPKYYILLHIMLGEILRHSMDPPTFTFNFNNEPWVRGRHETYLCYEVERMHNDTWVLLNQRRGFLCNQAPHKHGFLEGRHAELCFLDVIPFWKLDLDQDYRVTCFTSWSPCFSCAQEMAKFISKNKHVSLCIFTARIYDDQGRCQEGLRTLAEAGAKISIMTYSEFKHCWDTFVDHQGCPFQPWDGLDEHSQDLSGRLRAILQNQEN
UniProt O43143: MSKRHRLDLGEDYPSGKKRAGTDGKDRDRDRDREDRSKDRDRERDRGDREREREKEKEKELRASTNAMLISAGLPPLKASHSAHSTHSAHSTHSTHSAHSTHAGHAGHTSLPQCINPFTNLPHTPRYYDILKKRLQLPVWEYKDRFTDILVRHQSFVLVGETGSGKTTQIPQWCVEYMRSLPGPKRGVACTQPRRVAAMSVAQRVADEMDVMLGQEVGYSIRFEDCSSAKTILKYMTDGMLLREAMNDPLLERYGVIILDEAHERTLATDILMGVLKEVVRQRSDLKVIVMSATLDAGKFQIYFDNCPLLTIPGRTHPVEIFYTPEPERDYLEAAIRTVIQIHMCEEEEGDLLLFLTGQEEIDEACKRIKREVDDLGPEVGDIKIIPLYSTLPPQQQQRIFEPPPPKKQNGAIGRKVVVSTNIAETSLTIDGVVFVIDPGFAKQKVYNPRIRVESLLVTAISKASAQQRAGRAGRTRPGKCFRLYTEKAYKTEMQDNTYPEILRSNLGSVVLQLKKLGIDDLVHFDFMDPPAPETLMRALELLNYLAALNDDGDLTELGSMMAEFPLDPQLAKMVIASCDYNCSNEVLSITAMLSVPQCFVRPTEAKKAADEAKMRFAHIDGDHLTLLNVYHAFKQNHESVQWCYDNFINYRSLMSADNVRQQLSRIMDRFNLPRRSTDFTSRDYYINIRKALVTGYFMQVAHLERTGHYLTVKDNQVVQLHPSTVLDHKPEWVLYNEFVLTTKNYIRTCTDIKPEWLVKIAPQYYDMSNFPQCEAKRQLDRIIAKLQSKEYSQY
UniProt P67809: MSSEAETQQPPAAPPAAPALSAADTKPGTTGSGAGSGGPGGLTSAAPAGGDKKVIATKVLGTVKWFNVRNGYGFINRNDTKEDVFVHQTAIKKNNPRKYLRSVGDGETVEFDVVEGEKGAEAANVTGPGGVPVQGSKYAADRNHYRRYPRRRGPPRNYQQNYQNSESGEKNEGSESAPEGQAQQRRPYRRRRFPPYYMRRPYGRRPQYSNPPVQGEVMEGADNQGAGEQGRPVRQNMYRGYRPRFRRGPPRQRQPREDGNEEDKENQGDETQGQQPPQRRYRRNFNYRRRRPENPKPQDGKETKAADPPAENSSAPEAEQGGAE

Columns and labels:
[1] = molecular target: T1, FLAG-tagged mouse APOBEC3 (pcDNA-FLAG-mA3) (mouse) (UniProt Q99J72); assay: affinity purification with mass spectrometry
T1 sequence: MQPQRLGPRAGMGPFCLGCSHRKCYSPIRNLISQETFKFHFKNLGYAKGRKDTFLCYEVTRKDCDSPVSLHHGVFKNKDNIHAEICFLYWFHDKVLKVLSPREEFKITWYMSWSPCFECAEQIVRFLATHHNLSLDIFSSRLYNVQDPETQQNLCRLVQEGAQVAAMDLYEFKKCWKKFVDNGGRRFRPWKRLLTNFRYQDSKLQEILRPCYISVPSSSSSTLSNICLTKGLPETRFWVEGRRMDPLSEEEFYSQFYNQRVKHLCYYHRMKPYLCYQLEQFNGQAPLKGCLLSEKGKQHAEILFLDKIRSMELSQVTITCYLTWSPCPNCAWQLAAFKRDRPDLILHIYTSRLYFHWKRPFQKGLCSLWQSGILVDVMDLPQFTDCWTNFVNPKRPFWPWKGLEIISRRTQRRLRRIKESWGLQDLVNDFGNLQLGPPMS

[2] = molecular target: FLAG-tagged human APOBEC3G (human) (UniProt Q9HC16); assay: affinity purification with mass spectrometry

binding [1]	binding [2]	Substance
binds		DEAH-box helicase 15 (DHX15), endogenous in 293T cells (from UniProt O43143 1-795)
binds	binds	Y-box binding protein 1 (YB1), endogenous in 293T cells (from UniProt P67809 1-324)
binds	binds	hnRNPK, endogenous in 293T cells (from UniProt P61978 1-463)
